We go through one molecule from article doi:10.1101/2022.06.20.496767.

Protein sequences, listed by entry. Tags and fused reporters are not part of them.
UniProt Q6Q1P4: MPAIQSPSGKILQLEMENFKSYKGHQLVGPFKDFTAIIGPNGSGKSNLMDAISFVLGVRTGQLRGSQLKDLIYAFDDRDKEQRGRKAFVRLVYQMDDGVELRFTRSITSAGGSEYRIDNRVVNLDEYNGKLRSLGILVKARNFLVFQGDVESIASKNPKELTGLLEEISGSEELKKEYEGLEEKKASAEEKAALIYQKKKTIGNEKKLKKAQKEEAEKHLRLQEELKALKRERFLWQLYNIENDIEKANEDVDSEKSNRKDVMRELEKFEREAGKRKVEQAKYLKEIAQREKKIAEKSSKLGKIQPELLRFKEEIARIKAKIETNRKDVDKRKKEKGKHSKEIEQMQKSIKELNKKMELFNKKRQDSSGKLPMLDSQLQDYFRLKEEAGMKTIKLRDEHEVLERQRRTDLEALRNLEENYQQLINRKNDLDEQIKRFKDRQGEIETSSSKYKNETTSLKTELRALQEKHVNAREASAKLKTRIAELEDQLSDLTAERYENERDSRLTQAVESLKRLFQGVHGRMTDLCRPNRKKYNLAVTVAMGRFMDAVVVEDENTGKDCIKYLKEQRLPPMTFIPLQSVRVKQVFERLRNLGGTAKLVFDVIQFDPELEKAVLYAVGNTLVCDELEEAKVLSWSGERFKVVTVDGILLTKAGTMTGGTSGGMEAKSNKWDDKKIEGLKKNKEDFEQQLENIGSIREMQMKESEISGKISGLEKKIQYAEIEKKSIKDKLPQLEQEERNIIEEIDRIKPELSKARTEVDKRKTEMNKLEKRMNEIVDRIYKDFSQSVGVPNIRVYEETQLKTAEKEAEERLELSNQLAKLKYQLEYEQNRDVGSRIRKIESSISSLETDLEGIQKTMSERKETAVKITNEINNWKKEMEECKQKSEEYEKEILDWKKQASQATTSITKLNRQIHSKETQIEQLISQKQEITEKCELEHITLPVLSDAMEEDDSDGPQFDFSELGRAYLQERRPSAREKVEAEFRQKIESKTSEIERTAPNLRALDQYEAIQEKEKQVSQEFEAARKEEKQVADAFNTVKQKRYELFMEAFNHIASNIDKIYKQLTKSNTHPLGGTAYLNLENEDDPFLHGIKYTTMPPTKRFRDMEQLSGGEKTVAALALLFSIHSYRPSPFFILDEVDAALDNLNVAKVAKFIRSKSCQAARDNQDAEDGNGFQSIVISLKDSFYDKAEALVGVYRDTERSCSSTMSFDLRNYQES

Experiment [1] addresses T1, SCC3 (yeast two-hybrid construct) (Arabidopsis thaliana) (UniProt O82265).
T1 sequence: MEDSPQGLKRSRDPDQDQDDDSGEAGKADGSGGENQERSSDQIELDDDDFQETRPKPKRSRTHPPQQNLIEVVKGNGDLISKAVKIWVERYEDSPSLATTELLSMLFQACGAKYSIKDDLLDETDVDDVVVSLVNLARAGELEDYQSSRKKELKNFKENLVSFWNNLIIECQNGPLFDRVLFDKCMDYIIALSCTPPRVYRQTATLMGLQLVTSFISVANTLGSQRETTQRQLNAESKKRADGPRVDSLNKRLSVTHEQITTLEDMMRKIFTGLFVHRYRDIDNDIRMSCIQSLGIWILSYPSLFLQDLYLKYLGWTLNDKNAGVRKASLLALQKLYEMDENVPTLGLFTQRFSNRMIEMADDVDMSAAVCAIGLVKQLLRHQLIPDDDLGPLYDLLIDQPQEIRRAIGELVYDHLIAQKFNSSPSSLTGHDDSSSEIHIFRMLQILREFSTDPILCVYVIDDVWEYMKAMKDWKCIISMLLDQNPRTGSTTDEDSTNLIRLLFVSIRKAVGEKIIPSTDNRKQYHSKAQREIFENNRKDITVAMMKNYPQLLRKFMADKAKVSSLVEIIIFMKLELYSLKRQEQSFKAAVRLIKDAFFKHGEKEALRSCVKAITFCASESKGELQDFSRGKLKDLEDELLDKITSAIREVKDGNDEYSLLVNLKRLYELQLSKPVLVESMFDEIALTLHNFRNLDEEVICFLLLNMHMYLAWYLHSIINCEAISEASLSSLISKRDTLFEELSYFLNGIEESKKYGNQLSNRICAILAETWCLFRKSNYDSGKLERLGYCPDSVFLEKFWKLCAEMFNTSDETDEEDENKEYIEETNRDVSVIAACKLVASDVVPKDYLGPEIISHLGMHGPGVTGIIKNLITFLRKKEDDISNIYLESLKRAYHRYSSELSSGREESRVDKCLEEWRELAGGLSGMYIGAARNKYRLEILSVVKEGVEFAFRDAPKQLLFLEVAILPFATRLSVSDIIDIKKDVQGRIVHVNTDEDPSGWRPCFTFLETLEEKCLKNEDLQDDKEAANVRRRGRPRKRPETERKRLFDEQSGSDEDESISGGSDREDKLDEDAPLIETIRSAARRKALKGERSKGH
The experiment in a line: two-hybrid.

For experiment [2], the target named is SMC1 (yeast two-hybrid construct) (Arabidopsis thaliana) (UniProt Q6Q1P4). In words: two-hybrid.

These are yes or no findings as the source states them, for the method shown. Some results given as binding are weak or reduced against the parent protein; the word gives no strength.

B1: RAD21.2 (yeast two-hybrid construct in pGADT7) (protein, UniProt Q9FQ19 1-693)
chain: MFYSHTLLARKGPLGTVWCAAHVHQRLKKSQYTSINIPDTVDNIMFPEVPLALRTSSHLLVGVVRIYSKKVDYLYNDWNLLNTWVAKAFVSTQVNLPEDARQAPPESVTLPQALNLDEFDLEDDTLDMEFDNHTRSEEDITLTDQIPTGIDPYVAVTFDEDIISESIPMDVDQSTEPVSRHTGEIDVETAHETGPDNEPRDSNIAFDTGTYSPRNVTEEFTEVQDPRQSNLTEERIPNSERNDATSPGTVPEIERMRDAAHDLSPTSHPSFAAQQQDVRVERTESLDETLNEKEPTIPSIDEEMLNSGRHSAFELRSGSPGSAAGSEEERADFVHPSPQLVLQPSPPPQPQRRARKRKNFDGVTVLTNKNISERLKDPSDTLRKRKKMPSSKLKFWRMNNQSRKDQNFNEPLFTGFSDDLRNVFEKDYVASKPHLAVSDETLPEPASVSPTREAEVEINPVSPIPDSTNPDSTVQLSPAQQTEDVLDSAGPRPAHAESVATEAQSPRTFDNDDMGIEHLRDGGFPVYMPSPPPRSSPFRTDDFTTQSGNWETESYRTEPSTSTVPEDLPGQRNLGLSPVSERTDEELYFLEVGGNSPVGTPASQDSAALTGRARALAQYLKQRSSSSPTTSSHPSGDLSLSEILAGKTRKLAARMFFETLVLKSRGLIDMQQDRPYGDIALKLMPALFSKVQT
Take B1: the binding result in experiment [1] and in experiment [2] was “binds” in each case.
